Laboratory results taken from publication PMC8392785.
Results are given in words; binding and its absence hold for the method and conditions named.

Target: Erwinia chrysanthemi 3937 pectin methylesterase (Erwinia chrysanthemi 3937) (UniProt P0C1A9)
Test: SEC; 24 mL Superdex75 HR10/30; [PemA] = 50 µM (1.85 mg/mL); check of size homogeneity of the purified enzyme; both purified

B1: Erwinia chrysanthemi 3937 pectin methylesterase (enzyme, UniProt P0C1A9 25-366)
chain: ATTYNAVVSKSSSDGKTFKTIADAIASAPAGSTPFVILIKNGVYNERLTITRNNLHLKGESRNGAVIAAATAAGTLKSDGSKWGTAGSSTITISAKDFSAQSLTIRNDFDFPANQAKSDSDSSKIKDTQAVALYVTKSGDRAYFKDVSLVGYQDTLYVSGGRSFFSDCRISGTVDFIFGDGTALFNNCDLVSRYRADVKSGNVSGYLTAPSTNINQKYGLVITNSRVIRESDSVPAKSYGLGRPWHPTTTFSDGRYADPNAIGQTVFLNTSMDNHIYGWDKMSGKDKNGNTIWFNPEDSRFFEYKSYGAGATVSKDRRQLTDAQAAEYTQSKVLGDWTPTLP
B1 was tested. Which binding did it give?
The binding was “no binding (tested: 50 µM)”.
